From publication PMC6076264 come the findings set out here.

By UniProt entry, the sequences of proteins in these tests, tags left out. Where a name states a change or a piece, a line headed by the entry shows the natural chain unless it says otherwise.
UniProt P0A7I0: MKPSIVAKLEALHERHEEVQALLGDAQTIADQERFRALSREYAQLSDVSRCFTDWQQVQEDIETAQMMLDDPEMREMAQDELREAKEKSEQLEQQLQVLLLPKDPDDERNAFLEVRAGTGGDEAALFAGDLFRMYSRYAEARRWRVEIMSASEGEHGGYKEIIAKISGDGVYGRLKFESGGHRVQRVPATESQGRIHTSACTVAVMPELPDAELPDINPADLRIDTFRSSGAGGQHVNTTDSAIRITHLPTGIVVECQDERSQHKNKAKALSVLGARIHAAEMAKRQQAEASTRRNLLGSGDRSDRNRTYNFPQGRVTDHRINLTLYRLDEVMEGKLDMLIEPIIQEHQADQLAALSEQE
UniProt P0A7I4: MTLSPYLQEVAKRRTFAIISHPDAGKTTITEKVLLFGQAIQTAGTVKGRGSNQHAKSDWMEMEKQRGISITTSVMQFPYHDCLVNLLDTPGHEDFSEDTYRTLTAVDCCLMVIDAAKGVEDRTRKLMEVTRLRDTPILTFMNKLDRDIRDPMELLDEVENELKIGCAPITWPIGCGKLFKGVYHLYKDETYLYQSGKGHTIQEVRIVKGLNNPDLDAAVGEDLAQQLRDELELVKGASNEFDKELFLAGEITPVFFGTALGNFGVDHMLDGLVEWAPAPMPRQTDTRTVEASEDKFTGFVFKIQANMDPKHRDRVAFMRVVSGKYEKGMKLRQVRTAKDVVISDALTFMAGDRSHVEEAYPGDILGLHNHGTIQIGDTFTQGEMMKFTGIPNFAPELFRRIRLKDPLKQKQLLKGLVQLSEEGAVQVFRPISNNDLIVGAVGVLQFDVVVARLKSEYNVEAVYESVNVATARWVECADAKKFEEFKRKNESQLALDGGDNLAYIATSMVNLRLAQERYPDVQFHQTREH

This test has as its target RF1-GAQ (RF1-G234A) (UniProt P0A7I0). Briefly: cryo-EM structure; 70S-tRNA(fMet) complexes on start-stop mRNA with 2.5x RF1-GAQ and 50 uM API, then 7.5x RF3-GDPCP; buffer A (30 mM HEPES pH 7.4, 70 mM NH4Cl, 5 mM MgCl2, 30 mM KCl); states I-IV at 3.8-3.9 A and RF3-70S; both purified.

No constants are given. Whether binding was seen depends on the method and setting.

As to “RF3 (release factor 3), bound to GDPCP (from UniProt P0A7I4 1-529)”, the binding entry is reported as “no binding”.
